Most values lie at the floor of the assay. Slopes are relative: functional sequences can read slightly below zero.
tested on: Saccharomyces cerevisiae PS128 hsf1 delta, HSF1(1-493) fusion; assay: growth estimate (transactivation domain function in HSF1 fusion, heat-shock survival) (a.u. (slope of normalised read count over time)); higher = stronger growth at 37°C, i.e. more transactivation activity; details: library: random library

Row | Substance | growth estimate
1 | GCGRCWFGRTN | < -0.25
2 | HNQTATSSNGCR | < -0.25
3 | LCDYKNQSAEMLLCREW | < -0.25
4 | SPL | < -0.25
5 | NLRVKA | < -0.25
6 | QEVRLSCEWITWTLVCHFPR | -0.25
7 | TYEKTQ | < -0.25
8 | TMSVVESQRELI | < -0.25
9 | RTATVSGRTCSVWQ | < -0.25
10 | DCMLRHMGCVYRATRSHRMQ | -0.243
11 | WDGEYPGTR | < -0.25
12 | LRPSNLRKGKFSFGFVFGHV | < -0.25
13 | RPDV | < -0.25
14 | SLHIMGLLGGPDW | < -0.25
15 | LFLVYIPRANLWHA | < -0.25
16 | IFSWRKGPLVLYWQ | < -0.25
17 | IVVYTFN | -0.246
18 | RPSTWTIGILPTTQSKCVFL | < -0.25
19 | DKGTVLSRVNGSLTDYNKTV | < -0.25
20 | LMSLRRAYRPVEILML | < -0.25
21 | GFNV | < -0.25

Row | Substance | growth estimate
22 | RNSKRGPVRPEHLLH | < -0.25
23 | QLCCRQKDLRRLVIGFN | < -0.25
24 | VTVPV | < -0.25
25 | RSVCCDHDVIKRQAIWF | < -0.25
26 | SPVAKICLN | < -0.25
27 | SLCKSRPRVPFREDGLGGPY | < -0.25
28 | GIPTSLAVFSLFMGTGPPHR | -0.235
29 | ALQHLFIPVEHW | < -0.25
30 | SRYMVRE | < -0.25
31 | HGEPDVYQLPANSVLTS | < -0.25
32 | HEQVVSAINSIG | < -0.25
33 | IGVVISLIHKHAYGGSQPDV | < -0.25
34 | LSVKWEGIERLGGKR | < -0.25
35 | RNMFIDAEGPAKSRTSHSSL | < -0.25
36 | LTSTGGG | < -0.25
37 | DKGN | 0.0801
38 | AVFMGGLKGLG | < -0.25
39 | FCLASGRIT | < -0.25
40 | SRCEVLHRVNMLAAG | < -0.25
41 | LAFG | < -0.25
42 | SQGHLD | < -0.25

Random excerpt: 5 entries already listed
Row | Substance | growth estimate
12 | LRPSNLRKGKFSFGFVFGHV | < -0.25
7 | TYEKTQ | < -0.25
38 | AVFMGGLKGLG | < -0.25
29 | ALQHLFIPVEHW | < -0.25
33 | IGVVISLIHKHAYGGSQPDV | < -0.25

(cont.)

Row | Substance | growth estimate
43 | NLAIGKHAAAQYSQLRGAEN | -0.229
44 | YLLWPIHYYALITQSRRLTH | < -0.25
45 | IHRLCCFYETWVSLCPRSPG | < -0.25
46 | NGELATK | < -0.25
47 | VDSSIVLTAFRTLSGGFSYS | < -0.25
48 | CDPRFGNVCERTALGVRCHV | < -0.25
49 | SCKLALAAAGHVPRFYLNPD | -0.25
50 | SSRMRAKSWSRGIDVLGGHP | < -0.25
51 | GPTKRNVPLGETLRDRKTDP | < -0.25
52 | YHVPHTQACKGET | < -0.25
53 | GIKGWDEGNDLAAPFLKPDC | < -0.25
54 | VKCRHGPQLIVKRQQSCACS | < -0.25
55 | VGVGNTR | < -0.25
56 | ARTCQGVITAGAVSRSKDGP | -0.243
57 | GRYVWLLGEANQYRVQTGAT | < -0.25
58 | MARSPAKNRVKVGRPRRIPA | < -0.25
59 | GGVRQSERVSSEASIILTTG | < -0.25
60 | LQPKISRIA | < -0.25
61 | FGYPRSWARLRVLHGLPMDS | < -0.25
62 | ITDTVLRRHKIHEHVRLVPR | < -0.25
63 | KQRDRP | < -0.25

Row | Substance | growth estimate
64 | GGPTATDLEKRVDMVPLRSN | < -0.25
65 | AYSVGD | < -0.25
66 | HSRVHPFRCAGSQQGR | < -0.25
67 | SPTVALRSCPKCRS | < -0.25
68 | WPNPIVGISPAEKRKRLVVG | < -0.25
69 | VKYVVIRSRFPAT | < -0.25
70 | ILWEILLARSNFRWRPFASI | < -0.25
71 | FAEITGRGQRMVQ | < -0.25
72 | DGCTRCAFGRV | < -0.25
73 | KGPESIKFVPCTPGS | < -0.25
74 | DRVRVVTW | < -0.25
75 | KPDKAPGRDPIWGPFHSALT | < -0.25
76 | TRLEGRLKGRGLREIIWSLC | < -0.25
77 | VVGSHFRRRWGNVRPTCQHS | < -0.25
78 | AGLEFPTFPRSLCAVWCPI | < -0.25
79 | FNKTSGRLRLLESRRVSRVP | < -0.25
80 | GCKG | -0.25
81 | LVPLDILIRTRRKSGFTSSP | < -0.25
